Laboratory results as given in patent publication US20210122822A1 (FORTY SEVEN, published 2021).
No constants are given. Whether binding was seen depends on the method and setting. Some results given as binding are weak or reduced against the parent protein; the word gives no strength.

Protein sequences, listed by entry. Tags and fused reporters are not part of them. Residues count along the entry.
UniProt P10721, residues 26-520: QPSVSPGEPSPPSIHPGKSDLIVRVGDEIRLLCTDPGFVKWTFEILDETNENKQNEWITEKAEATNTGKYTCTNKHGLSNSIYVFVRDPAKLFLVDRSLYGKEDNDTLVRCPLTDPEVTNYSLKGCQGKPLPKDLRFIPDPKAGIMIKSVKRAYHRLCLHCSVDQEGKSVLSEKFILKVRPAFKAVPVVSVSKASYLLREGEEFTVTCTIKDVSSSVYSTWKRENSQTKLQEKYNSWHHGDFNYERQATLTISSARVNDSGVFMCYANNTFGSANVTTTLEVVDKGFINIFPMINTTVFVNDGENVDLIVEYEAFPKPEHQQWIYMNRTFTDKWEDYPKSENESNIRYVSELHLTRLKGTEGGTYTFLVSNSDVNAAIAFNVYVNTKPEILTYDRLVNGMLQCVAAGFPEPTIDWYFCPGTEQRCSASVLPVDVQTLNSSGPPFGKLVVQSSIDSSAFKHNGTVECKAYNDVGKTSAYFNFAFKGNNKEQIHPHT

Key:
[1] = molecular target: T1, human c-Kit-Fc fusion protein (human, UniProt P10721 26-520, limits assumed); assay: ELISA, coated human c-Kit-Fc, against AMG191
T1 construct: not shown: Fc part of the fusion protein
Experimental: (§1) Antigen binding activity measurement by ELISA. 96-well plates (Nunc, Roskilde, Denmark) were coated with 1 ug/ml human c-Kit-Fc fusion protein in phosphate-buffered saline (PBS) for 16 hr at 4° C. After blocking for 1 hr with 0.4% BSA in PBS at room temperature, anti-c-Kit antibodies were added in 1/3 sequential dilutions, and incubated for 1 hr at room temperature. Plates were subsequently washed three times and incubated with HRP-conjugated goat anti-human kappa-specific antibody for 1 hr at room temperature. After washing, plates were developed with TMB. The reaction was stopped with 2M […], and OD was measured at 450 nm.

[2] = molecular target: T1, human c-Kit-Fc fusion protein; assay: ELISA, coated human c-Kit-Fc, FIG. 2D (members named at paragraph 117)
Experimental: as §1

binding [1]: binds | binding [2]: binds
B1: AF-1-1 (antibody, V domains shown)
VH: QVQLVQSGAEVKKPGASVKVSCKASGYTFTSYNMHWVRQAPGQGLEWMGVIYSGNGDTSYAQKFQGRVTITADKSTSTAYMELSSLRSEDTAVYYCARERDTRFGNWGQGTLVTVSS
VL: DIVMTQSPDSLAVSLGERATINCRASDSVDIYGNSFMHWYQQKPGQPPKLLIYLASNLESGVPDRFSGSGSGTDFTLTISSLQAEDVAVYYCQQNNEDPYTFGGGTKVEIK
